PubChem BioAssay AID602196, INSERM – 2012

Assay: 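Knock-downs that protect lung cancer cells from cisplatin or sensitise them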
Cells: human A549 lung cancer cells
Reagent: siRNA pair against human genes
Time to read-out: 48 h transfection before cisplatin; time from cisplatin to read-out not stated
Conditions: cisplatin at a dose killing half of control-siRNA cells; exact dose and duration not given
Measured: 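Shift in cisplatin death relative to control siRNA, from -50 (all cells die) to +50 (no cells die); siRNAs harmful on their own scored 0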
Scale: two-siRNA summed score (-2 to +2): higher = both siRNAs protect from cisplatin killing; -2 means both sensitise
Rule for the call: 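siRNAs harmful alone (LDH or WST-1) get 0; others get +1 for less and -1 for more cisplatin killing; genes are active when the two siRNAs give the same sign, summing to ±2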
Calls: active = both siRNAs shift cisplatin killing the same way; inactive = no consistent shift, or siRNA harmful alone
This is a random part of about 23,000 reagents. In the full data, 455 (2%) got an active call. 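Active includes both protection and sensitisation; some change values fall well beyond the stated -50 to +50 range.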 Entries without a mark were called inactive. Not all columns of the deposit are shown. Not stated in the record: the amount of reagent.

SETDB1 (GeneID 9869) showed two-siRNA summed score (-2 to +2) = 1.
After knock-down of DTNB (GeneID 1838), the screen gave two-siRNA summed score (-2 to +2) = 1.
LOC441648 showed two-siRNA summed score (-2 to +2) = 0.
Silencing of LOC338749 gave: two-siRNA summed score (-2 to +2) = -1.
Against UTP14C (GeneID 9724) the deposit lists two-siRNA summed score (-2 to +2) = 1.
After knock-down of FAM216B (GeneID 144809), the record shows two-siRNA summed score (-2 to +2) = 0.
PIGX (GeneID 54965) scored two-siRNA summed score (-2 to +2) = 0.
Knock-down of OGDH (GeneID 4967) gave: two-siRNA summed score (-2 to +2) = 0.
After knock-down of GTPBP1 (GeneID 9567), the screen gave two-siRNA summed score (-2 to +2) = 0.
Depletion of PTP4A3 (GeneID 11156) resulted in: two-siRNA summed score (-2 to +2) = -1.
For RHPN1-AS1 (GeneID 78998), the values are two-siRNA summed score (-2 to +2) = 0.
After knock-down of WDR83 (GeneID 84292), the screen gave two-siRNA summed score (-2 to +2) = 0.
For LOC152877, the values are two-siRNA summed score (-2 to +2) = 0.
Against INAVA (GeneID 55765), the entry reads two-siRNA summed score (-2 to +2) = 0.
NUP133 (GeneID 55746) scored two-siRNA summed score (-2 to +2) = 0.
CRYZL1 (GeneID 9946) scored two-siRNA summed score (-2 to +2) = 0.
After knock-down of HDHD2 (GeneID 84064) the results were two-siRNA summed score (-2 to +2) = 0.
For LOC339263, the entry reads two-siRNA summed score (-2 to +2) = 0.
YWHAE (GeneID 7531) showed two-siRNA summed score (-2 to +2) = 0.
After knock-down of CACNG8 (GeneID 59283), the record shows two-siRNA summed score (-2 to +2) = 0.
MCM3AP (GeneID 8888) showed two-siRNA summed score (-2 to +2) = -1.
Silencing of SYNPO2L (GeneID 79933) resulted in: two-siRNA summed score (-2 to +2) = 0.
For LOC442461, the values are two-siRNA summed score (-2 to +2) = 0.
With knock-down of PHF5A (GeneID 84844), the record shows two-siRNA summed score (-2 to +2) = 0.
For CLEC4D (GeneID 338339), the values are two-siRNA summed score (-2 to +2) = 0.
After knock-down of COMMD5 (GeneID 28991) the results were two-siRNA summed score (-2 to +2) = -1.
Against PPP1R16B (GeneID 26051), the entry reads two-siRNA summed score (-2 to +2) = -1.
Depletion of KDM4C (GeneID 23081) resulted in: two-siRNA summed score (-2 to +2) = -1.
H2BC9 (GeneID 8345) scored two-siRNA summed score (-2 to +2) = 0.
For EIF4H (GeneID 7458), the values are two-siRNA summed score (-2 to +2) = 0.
With knock-down of LOC440567 the results were two-siRNA summed score (-2 to +2) = 0.
